Results as given in paper PMC10222209 (Pharmaceuticals, 2023).

System: LNCaP95 cells
Assay: Antiproliferative assay (resazurin, 72 h) in LNCaP95 cells
Assay type: cell-based
Conditions: LNCaP-95; antiproliferation, LNCaP95, 72 h, mean of three independent experiments
Protocol: The synthesized compounds were first screened in 22Rv1, an enzalutamide-resistant cell line at concentrations of 10 and 1.0 μM, respectively.
22Rv1 cells were obtained from ATCC. LNCaP95 cells were provided by Dr. Yan Dong’s laboratory (Tulane University School of Medicine). LNCaP95 cells were maintained in an RPMI1640 medium with charcoal-stripped serum (CSS). 22Rv1 cells were maintained in an RPMI1640 medium with 10% FBS. Cells were seeded in 96-well plates (5 × 10^3 cells/well) containing a 50 μL growth medium for 24 h. After medium removal, a 100 μL fresh medium containing individual compounds at different concentrations was added to each well and incubated at 37 °C for 72 h. Then, 20 μL of resazurin was added for 2 h before recording fluorescence at 560 nm (excitation) and 590 nm (emission) using a Victor microtiter plate fluorometer (Perkin-Elmer, Waltham, MA, USA).

IC50: > 10000 µM
Compound: CNC(=O)c1ccc(N2C(=S)N(c3ccc(C#N)c(C(F)(F)F)c3)C(=O)C2(C)C)cc1F [Enzalutamide, reference compound]
